From doi:10.1101/2025.02.12.637793
Results are given in words; binding and its absence hold for the method and conditions named. In cells and extracts the contact can be indirect. Some entries that bind do so weakly or less than the wild type. For part of these data: Sequences can lack the tags named with a protein.

By UniProt entry, the sequences of proteins in these tests, tags left out. Residues count along the entry.
UniProt P19634: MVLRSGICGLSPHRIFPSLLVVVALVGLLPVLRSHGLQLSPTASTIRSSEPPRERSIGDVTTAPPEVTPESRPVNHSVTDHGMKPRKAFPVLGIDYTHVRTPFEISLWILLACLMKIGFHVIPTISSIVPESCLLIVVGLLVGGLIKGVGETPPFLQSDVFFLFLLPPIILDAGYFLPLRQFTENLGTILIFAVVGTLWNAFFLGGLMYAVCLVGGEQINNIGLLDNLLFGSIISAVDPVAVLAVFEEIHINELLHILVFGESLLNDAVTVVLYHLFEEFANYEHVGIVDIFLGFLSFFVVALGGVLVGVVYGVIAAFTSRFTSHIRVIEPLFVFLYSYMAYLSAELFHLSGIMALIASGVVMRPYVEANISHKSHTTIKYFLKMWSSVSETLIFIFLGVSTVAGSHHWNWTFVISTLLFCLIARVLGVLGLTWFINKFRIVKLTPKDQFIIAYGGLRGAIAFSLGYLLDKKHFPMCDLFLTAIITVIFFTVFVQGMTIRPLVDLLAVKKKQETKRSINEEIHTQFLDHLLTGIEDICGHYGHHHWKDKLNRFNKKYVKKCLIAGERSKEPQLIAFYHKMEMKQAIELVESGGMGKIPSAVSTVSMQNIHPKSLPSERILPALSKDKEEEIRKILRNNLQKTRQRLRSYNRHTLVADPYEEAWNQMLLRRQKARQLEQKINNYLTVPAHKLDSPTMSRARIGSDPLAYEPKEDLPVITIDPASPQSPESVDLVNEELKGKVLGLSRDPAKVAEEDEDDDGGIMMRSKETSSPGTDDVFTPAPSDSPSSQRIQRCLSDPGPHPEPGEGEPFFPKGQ
UniProt P48764, residues 26-834: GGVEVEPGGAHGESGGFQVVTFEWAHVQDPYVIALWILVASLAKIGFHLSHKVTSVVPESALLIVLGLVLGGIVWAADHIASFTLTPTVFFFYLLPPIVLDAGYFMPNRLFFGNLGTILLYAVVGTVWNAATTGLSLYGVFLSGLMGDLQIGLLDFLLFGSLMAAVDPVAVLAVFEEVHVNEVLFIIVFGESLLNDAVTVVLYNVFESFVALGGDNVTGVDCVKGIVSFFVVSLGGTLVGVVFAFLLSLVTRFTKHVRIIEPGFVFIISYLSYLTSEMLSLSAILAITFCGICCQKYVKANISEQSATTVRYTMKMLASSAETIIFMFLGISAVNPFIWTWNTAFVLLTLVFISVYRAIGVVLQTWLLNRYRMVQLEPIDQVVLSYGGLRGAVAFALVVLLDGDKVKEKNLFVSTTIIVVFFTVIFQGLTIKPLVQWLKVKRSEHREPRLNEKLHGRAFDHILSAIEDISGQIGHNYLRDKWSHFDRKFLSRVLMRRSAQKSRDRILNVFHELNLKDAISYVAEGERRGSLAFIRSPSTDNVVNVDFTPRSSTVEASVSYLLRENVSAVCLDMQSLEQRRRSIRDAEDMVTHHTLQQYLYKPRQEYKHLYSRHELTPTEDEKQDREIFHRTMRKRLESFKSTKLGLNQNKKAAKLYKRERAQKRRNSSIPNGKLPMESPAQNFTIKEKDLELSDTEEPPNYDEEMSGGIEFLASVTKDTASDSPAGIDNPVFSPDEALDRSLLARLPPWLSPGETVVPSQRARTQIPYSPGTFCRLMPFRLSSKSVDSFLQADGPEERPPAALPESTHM

Experiments:
Experiment in all cases: co-IP
[1] = target: T1, cystinosinLKG-DsRed (human) (UniProt O60931)
T1 sequence: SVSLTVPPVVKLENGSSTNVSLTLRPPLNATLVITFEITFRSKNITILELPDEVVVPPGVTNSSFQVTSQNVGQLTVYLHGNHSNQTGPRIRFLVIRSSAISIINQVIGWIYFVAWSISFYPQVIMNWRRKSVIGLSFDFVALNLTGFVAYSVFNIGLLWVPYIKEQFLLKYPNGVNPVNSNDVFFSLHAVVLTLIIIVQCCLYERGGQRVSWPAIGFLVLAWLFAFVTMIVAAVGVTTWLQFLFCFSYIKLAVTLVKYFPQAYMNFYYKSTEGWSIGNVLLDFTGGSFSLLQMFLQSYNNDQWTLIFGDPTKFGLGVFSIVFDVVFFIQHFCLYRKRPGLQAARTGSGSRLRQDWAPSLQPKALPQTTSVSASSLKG

NHE1-GFP (human) = NHE1-GFP (human) (UniProt P19634)
NHE2-GFP (human) = target: T2, NHE2-GFP (human) (UniProt Q9UBY0)
T2 sequence: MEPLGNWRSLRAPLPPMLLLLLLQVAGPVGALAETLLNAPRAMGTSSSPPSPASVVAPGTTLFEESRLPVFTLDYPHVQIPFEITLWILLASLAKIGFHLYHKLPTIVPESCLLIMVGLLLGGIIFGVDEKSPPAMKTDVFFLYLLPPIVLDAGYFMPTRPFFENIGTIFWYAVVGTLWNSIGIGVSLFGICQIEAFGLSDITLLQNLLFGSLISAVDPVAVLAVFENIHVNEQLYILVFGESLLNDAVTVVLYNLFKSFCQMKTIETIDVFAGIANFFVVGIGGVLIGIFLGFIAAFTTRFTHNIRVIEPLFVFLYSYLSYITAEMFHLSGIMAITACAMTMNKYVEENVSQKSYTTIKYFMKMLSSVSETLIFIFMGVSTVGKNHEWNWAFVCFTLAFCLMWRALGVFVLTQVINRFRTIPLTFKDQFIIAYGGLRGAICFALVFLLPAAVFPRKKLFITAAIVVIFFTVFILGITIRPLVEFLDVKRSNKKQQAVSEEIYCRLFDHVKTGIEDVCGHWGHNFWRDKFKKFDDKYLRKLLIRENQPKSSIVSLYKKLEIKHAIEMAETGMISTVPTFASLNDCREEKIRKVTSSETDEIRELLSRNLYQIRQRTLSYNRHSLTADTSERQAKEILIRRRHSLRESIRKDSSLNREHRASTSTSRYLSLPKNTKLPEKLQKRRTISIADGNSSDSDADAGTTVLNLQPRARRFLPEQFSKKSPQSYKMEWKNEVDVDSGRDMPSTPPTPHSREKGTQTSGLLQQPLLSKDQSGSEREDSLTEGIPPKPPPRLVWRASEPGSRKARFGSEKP

[2] = target: NHE3-GFP (Na+/H+ exchanger isoform 3 fused with green fluorescent protein) (human) (UniProt P48764)

## NHE1-GFP (from UniProt P19634 1-815)
[1]
  binding: no binding

## NHE3-GFP (Na+/H+ exchanger isoform 3 fused with green fluorescent protein) (from UniProt P48764 26-834)
[1]
  binding: binds

B1: cystinosinLKG-DsRed (protein, UniProt O60931-2 23-400)
chain: T1 sequence
NHE1-GFP (human)
  binding: no binding
NHE2-GFP (human)
  binding: binds
[2]
  binding: binds

B2: NHE2-GFP (protein, UniProt Q9UBY0 1-812)
chain: T2 sequence
[1]
  binding: binds
